Columns and labels:
[1] = Global Warming Potential (GWP) calculated by IPCC AR5 methods from FTIR radiative efficiency and atmospheric lifetime; conditions: 100 yr integration time horizon; calculated from measured radiative efficiency and atmospheric lifetime
[2] = Atmospheric lifetime from relative rate studies with hydroxyl radicals, chloromethane as reference; conditions: reaction with hydroxyl radicals relative to CH3Cl, FTIR

| Structure (SMILES) | GWP (100 yrs) [1] | Atmospheric Lifetime [2] [yrs] |
| --- | --- | --- |
| F/C(=C(/C(F)(F)F)C(F)(Oc1ccccc1)C(F)(F)C(F)(F)F)C(F)(C(F)(F)F)C(F)(F)F (stereo not drawn) [Example 4, (E)-((1,1,1,2,2,3,5,6,7,7,7-Undecafluoro-4,6-bis(trifluoromethyl)hept-4-en-3-yl)oxy)benzene+isomers] | 4 | 0.16 |
| FC(F)(F)C(=C(Oc1cc(C(F)(F)F)cc(C(F)(F)F)c1)C(F)(F)C(F)(F)F)C(F)(F)F [Example 6, 1-((1,1,1,4,4,5,5,5-Octafluoro-2-(trifluoromethyl)pent-2-en-3-yl)oxy)-3,5-bis(trifluoromethyl)benzene] | 49 | 0.74 |

Source: US12414267B2, “Fluorinated aromatics and methods of using same” (3M INNOVATIVE PROPERTIES COMPANY, priority 2019, dated 2025)
